The supplement of paper PMC10849652
This is one part of the list.

Sequences of proteins named here, by UniProt entry; tags and fusion partners are left off. A change or cut given only in a name is not applied to a line headed by its entry.
UniProt Q7Z388: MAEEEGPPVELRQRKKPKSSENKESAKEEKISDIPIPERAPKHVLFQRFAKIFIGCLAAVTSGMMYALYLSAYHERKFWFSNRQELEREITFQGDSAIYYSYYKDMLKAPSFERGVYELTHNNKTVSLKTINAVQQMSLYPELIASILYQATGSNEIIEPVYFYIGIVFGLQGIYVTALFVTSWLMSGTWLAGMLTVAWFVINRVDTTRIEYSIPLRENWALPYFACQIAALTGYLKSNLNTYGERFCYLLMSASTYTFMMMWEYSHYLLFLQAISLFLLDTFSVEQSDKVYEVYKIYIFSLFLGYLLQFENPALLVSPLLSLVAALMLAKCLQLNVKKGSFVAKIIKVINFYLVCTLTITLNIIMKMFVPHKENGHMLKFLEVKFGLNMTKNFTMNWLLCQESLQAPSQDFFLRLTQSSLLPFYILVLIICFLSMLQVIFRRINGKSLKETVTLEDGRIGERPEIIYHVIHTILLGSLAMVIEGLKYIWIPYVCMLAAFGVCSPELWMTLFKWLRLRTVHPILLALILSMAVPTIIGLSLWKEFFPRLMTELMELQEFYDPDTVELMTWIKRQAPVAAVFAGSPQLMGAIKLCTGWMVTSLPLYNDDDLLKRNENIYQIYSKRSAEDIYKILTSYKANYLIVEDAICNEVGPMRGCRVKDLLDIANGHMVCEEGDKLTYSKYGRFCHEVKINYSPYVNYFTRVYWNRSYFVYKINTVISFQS
UniProt O75937: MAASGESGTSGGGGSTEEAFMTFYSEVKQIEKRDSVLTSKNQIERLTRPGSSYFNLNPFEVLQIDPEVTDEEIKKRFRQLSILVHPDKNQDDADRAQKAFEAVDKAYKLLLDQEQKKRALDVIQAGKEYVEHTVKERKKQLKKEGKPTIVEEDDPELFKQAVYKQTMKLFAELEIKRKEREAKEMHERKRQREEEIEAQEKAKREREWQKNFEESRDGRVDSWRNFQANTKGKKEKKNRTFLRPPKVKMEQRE
UniProt Q9BQ95: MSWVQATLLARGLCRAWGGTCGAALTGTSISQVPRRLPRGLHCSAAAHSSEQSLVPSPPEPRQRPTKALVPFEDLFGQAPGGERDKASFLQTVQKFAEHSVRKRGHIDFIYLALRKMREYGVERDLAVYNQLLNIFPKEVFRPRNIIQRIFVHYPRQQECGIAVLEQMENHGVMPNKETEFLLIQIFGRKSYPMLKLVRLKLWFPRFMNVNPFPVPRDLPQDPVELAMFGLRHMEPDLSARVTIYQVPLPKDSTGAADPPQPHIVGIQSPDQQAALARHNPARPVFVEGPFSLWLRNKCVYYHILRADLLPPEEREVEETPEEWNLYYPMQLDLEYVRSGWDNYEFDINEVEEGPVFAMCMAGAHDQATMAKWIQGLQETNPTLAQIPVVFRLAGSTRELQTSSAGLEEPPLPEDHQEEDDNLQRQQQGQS
UniProt Q8WWZ3: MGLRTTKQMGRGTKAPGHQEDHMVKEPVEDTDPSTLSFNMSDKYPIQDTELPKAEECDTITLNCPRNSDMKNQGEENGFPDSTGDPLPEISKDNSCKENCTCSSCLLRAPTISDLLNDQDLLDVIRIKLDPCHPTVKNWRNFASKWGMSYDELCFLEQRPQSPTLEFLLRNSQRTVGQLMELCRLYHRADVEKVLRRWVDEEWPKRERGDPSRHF
UniProt Q9Y6G9, whole entry, looked up: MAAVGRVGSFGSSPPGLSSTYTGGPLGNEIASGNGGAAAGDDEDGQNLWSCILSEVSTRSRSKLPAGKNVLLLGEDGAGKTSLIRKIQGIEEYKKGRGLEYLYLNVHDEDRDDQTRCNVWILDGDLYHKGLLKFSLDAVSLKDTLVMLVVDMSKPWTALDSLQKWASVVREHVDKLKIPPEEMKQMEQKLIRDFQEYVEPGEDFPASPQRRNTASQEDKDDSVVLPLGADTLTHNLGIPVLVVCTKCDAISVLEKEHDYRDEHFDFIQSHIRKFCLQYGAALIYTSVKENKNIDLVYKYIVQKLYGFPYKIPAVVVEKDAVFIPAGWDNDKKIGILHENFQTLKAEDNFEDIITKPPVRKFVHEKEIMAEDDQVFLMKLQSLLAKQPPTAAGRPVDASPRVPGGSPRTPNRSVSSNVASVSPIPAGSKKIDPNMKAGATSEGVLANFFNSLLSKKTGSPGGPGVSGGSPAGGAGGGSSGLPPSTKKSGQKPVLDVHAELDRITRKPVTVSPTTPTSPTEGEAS
UniProt P30084: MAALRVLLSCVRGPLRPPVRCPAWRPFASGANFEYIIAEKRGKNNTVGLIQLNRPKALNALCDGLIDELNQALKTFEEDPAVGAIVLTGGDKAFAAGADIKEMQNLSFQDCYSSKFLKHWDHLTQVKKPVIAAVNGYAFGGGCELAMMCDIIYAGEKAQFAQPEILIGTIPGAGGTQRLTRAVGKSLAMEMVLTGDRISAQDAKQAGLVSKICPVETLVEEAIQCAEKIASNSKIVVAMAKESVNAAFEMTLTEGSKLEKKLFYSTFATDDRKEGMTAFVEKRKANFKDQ
UniProt Q9UBS4: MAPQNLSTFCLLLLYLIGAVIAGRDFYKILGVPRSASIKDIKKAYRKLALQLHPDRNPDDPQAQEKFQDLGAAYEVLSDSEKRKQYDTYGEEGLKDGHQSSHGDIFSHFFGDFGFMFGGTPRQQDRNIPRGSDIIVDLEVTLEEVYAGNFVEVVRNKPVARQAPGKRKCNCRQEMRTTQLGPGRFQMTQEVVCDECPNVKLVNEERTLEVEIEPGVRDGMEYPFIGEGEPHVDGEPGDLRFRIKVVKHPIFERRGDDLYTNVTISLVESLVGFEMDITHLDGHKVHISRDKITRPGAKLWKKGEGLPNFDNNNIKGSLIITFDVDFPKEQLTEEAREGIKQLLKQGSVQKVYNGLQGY
UniProt Q5JSL3: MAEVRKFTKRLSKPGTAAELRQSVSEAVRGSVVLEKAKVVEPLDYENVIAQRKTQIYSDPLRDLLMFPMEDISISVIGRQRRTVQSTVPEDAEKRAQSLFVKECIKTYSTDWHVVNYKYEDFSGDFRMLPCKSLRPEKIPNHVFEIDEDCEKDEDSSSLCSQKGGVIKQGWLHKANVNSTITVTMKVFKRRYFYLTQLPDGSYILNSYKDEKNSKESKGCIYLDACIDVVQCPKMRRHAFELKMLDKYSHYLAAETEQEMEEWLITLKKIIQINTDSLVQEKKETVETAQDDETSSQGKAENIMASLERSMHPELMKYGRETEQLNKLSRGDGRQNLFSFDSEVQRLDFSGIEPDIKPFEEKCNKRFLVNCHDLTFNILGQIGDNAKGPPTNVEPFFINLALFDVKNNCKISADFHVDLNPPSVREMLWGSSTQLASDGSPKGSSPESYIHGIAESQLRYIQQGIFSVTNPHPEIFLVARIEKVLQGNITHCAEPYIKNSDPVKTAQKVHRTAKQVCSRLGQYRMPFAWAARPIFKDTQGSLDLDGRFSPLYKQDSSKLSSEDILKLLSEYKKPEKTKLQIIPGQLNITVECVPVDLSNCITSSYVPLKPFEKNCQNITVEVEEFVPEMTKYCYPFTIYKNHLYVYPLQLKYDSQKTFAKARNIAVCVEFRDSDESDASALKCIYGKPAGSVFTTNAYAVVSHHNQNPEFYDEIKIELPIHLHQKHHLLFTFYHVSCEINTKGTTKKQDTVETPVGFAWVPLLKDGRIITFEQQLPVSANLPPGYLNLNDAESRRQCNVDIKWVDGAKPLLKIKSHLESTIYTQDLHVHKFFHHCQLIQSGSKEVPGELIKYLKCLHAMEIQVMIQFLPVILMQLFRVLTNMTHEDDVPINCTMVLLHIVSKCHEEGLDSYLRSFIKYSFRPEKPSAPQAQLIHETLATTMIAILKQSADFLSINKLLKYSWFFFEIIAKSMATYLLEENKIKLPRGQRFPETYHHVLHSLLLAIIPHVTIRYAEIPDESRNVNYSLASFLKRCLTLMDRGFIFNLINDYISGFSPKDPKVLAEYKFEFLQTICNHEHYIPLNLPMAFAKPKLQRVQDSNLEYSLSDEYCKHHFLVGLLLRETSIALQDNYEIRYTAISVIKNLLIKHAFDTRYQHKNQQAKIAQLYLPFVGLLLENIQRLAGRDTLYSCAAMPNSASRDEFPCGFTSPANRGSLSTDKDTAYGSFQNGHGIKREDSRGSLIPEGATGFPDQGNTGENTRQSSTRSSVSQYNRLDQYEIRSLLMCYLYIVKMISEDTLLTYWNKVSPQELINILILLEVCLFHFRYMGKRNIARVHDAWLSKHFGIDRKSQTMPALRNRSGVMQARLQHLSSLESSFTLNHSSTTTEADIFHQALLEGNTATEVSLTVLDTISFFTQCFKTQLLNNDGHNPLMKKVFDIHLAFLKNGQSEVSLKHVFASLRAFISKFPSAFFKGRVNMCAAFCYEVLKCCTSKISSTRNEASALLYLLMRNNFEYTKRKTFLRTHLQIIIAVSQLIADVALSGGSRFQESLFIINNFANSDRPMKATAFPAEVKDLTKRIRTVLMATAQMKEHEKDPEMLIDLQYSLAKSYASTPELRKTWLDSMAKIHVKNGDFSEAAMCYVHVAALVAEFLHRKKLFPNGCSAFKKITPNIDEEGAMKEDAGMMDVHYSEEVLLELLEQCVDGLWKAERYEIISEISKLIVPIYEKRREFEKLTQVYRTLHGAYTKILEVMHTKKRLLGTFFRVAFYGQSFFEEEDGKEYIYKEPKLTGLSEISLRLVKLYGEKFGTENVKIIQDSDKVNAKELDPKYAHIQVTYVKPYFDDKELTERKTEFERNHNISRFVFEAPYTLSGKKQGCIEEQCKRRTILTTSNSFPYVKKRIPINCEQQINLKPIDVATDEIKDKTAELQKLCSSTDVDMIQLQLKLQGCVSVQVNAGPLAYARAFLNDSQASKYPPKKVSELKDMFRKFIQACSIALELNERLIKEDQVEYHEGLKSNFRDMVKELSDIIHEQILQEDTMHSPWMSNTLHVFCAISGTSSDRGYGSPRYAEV
UniProt Q9BVJ7: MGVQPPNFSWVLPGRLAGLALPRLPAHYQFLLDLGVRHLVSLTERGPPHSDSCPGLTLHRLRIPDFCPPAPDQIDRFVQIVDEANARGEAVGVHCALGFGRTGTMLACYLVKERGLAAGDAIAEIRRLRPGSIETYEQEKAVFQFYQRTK
UniProt Q16610: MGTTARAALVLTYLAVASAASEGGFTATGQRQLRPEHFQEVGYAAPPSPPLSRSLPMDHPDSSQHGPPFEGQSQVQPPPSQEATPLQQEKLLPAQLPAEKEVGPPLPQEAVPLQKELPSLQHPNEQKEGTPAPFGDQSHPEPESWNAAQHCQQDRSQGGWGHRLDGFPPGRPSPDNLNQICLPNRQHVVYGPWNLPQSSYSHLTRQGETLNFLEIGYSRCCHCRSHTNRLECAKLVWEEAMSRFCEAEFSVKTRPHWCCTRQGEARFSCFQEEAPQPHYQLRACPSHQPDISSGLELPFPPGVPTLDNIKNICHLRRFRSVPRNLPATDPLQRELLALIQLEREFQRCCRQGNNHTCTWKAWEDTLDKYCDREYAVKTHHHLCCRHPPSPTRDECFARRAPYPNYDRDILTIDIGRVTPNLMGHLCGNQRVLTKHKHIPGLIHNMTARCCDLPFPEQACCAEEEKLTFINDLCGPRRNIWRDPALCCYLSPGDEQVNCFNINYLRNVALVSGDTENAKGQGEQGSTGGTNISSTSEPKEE
UniProt Q9NY33: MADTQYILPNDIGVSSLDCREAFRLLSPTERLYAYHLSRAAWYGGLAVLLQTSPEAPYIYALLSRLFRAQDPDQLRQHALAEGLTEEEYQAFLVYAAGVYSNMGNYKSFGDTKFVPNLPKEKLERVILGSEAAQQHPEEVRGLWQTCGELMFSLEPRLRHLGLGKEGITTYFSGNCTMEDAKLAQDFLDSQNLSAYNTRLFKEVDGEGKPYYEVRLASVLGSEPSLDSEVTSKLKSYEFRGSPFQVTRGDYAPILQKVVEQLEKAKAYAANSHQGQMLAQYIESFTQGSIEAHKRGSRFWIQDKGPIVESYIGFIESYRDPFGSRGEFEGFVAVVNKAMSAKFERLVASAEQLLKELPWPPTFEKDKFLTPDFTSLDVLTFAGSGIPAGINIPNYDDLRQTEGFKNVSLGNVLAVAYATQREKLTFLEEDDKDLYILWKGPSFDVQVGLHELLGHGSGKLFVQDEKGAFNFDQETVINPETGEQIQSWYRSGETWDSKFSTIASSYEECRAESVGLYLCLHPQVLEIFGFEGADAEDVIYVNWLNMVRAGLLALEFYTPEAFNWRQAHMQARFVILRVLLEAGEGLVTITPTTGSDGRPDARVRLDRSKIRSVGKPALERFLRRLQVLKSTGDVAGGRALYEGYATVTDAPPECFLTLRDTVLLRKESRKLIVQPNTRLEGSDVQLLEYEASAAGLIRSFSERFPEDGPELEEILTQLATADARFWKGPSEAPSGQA
UniProt Q9UKB3: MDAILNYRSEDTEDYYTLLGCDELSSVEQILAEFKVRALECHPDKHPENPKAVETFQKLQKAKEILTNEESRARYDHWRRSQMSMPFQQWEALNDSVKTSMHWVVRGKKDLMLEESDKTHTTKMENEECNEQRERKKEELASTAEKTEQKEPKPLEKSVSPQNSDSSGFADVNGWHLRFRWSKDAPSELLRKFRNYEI
UniProt P63167, whole entry, looked up: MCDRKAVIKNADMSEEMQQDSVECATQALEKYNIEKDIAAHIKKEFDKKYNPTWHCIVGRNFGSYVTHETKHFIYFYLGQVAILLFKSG

Compound: CC[C@@H]1C(=O)N(C)c2cnc(Nc3ccc(C(=O)NC4CCN(C)CC4)cc3OC)nc2N1C1CCCC1
Experiment: log2 fold change, soluble protein after heating vs DMSO (PISA); higher = thermal stabilisation; K562 cells, 10 uM, 30 min; active = over 0.2 and 3.5 SD of the protein, either way, in both replicates (recomputed)
Summary of the method: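 For each measurement, 10 μM compound was applied for 30 min to K562 cells at 2×10^6 cells/mL. Aliquots were heated for 3 min across 48°C-58°C, pooled, and extracted in PBS with 0.5% NP-40 at 4°C; the supernatant after 21,000xg for 90 min was soluble protein. This was quantified by TMTpro 16plex LC-MS/MS with channel sums equalised, and thermal stability was reported relative to control samples from duplicates, on a log2 fold-change scale.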

log2 fold change, inactive:
DPH2 (UniProt Q9BQC3) 0.002
DPY19L4 (UniProt Q7Z388) 0.117
DNAJC8 (UniProt O75937) -0.063
ECSIT (UniProt Q9BQ95) 0.003
EDARADD (UniProt Q8WWZ3) -0.012
DSTN (UniProt P60981) -0.008
ECI2 (UniProt O75521) -0.003
DSC2 (UniProt Q02487) -0.083
DNAJA3 (UniProt Q96EY1) 0.046
DNAJC21 isoform 3 (UniProt Q5F1R6) 0.085
DYNC1LI1 (UniProt Q9Y6G9) -0.004
DNM1L isoform 6 (UniProt O00429) -0.017
ECHS1 (UniProt P30084) -0.041
DNAJB11 (UniProt Q9UBS4) -0.027
EDEM1 (UniProt Q92611) 0.029
DYNLRB1 (UniProt Q9NP97) 0.041
DOCK11 (UniProt Q5JSL3) 0.016
DUSP23 (UniProt Q9BVJ7) 0.018
ECM1 isoform 4 (UniProt Q16610) 0.027
DPP3 (UniProt Q9NY33) -0.017
DPP9 isoform 2 (UniProt Q86TI2) 0.02
DNAJC12 (UniProt Q9UKB3) -0.061
DUSP3 (UniProt P51452) -0.012
DUT (UniProt P33316) 0.019
DPH6 (UniProt Q7L8W6) -0.139
DYNLL2 (UniProt Q96FJ2) -0.035
DNAJC10 (UniProt Q8IXB1) 0.056
DYNLL1 (UniProt P63167) -0.014
DNAJC6 isoform 2 (UniProt O75061) 0.007
EDEM3 (UniProt Q9BZQ6) 0.033
DUS4L (UniProt O95620) -0.013
DNAJC11 (UniProt Q9NVH1) -0.009
DNAJC17 (UniProt Q9NVM6) -0.003

At a glance, some entries already given:
log2 fold change, inactive:
DNAJA3 (UniProt Q96EY1) 0.046
DNAJC21 isoform 3 (UniProt Q5F1R6) 0.085
